# Laboratory results reported in the supplement of paper PMC12009310.
# Where a name gives a salt, the structure may show the parent alone. ± gives the standard deviation of the averaged measurements. Some of the results follow. Plates or batches differ in their baseline, so values are only roughly comparable.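 The cells are a mouse kidney inner medullary collecting duct line, silenced either for the ciliary gene Rpgrip1l or with a non-targeting control siRNA.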
# Test system: mIMCD3
# Assay: robust z score of cell number vs plate controls; higher = more cells (less cytotoxic)
# Details: 10 µM; 48 h; siRNA: siRpgrip1l
row,Compound,robust z score of cell number
1,O=C1CCC(N2C(=O)c3ccccc3C2=O)C(=O)N1 (centres undefined) [Thalidomide],1.87 ± 4.3
2,NC(C(=O)O)c1cc(O)cc(O)c1 (racemic),3.54 ± 0.5
3,Oc1cc2c(cc1O)C(c1ccccc1)CNCC2 (centres undefined),-3.34 ± 0.55
4,CCCCCCCCCCCCCCCCn1cc[n+](Cc2ccccc2)c1C,-30.3 ± 29
5,Nc1c(Br)cc(Br)cc1CN[C@H]1CC[C@H](O)CC1 [Ambroxol hydrochloride],-9.43 ± 5.4
6,O=C1C(Cl)=C(NCCN2CCOCC2)C(=O)c2ncccc21,-44.1 ± 40
7,CCCC[P+](CCCC)(CCCC)Cc1ccc(NC(=O)C(Cc2ccc3ccccc3c2)NC(=NC2CCCCC2)NC2CCCCC2)cc1 (centres undefined),-54.7 ± 42
8,Cc1ccc([N+](=O)[O-])cc1S(=O)(=O)N(C)C,-2.3 ± 2.8
9,COC(=O)c1c(C)[nH]c(C)c1C(=O)c1ccccc1Cc1ccccc1,-91.4 ± 87
10,CC(C)N(CCC(=O)c1ccc2ccccc2c1)Cc1ccccc1,-307 ± 220
11,CCCCn1c(=O)c2[nH]c(C34CC5CC(CC3C5)C4)nc2n(CCCO)c1=O,-22.7 ± 12
12,CCN(CC)CC1CCCCN1CC(=O)N1c2ccccc2C(=O)Nc2cccnc21 (centres undefined),-12.8 ± 9.9
13,NC(=O)N1C(=O)/C(=C(\O)c2cccs2)c2cc(Cl)ccc21 [Tenidap],-19.8 ± 8.7
14,"CCCn1c(=O)c2[nH]c(-c3ccccc3)nc2n(CCC)c1=O [1,3-Dipropyl-8-phenylxanthine]",-30.6 ± 31
15,COc1ccccc1OCCNCC(O)COc1cccc2[nH]c3ccccc3c12 (centres undefined) [Carvedilol],-29.2 ± 28
16,COc1cc2c(Nc3ccc(NC(=O)c4ccccc4)cc3)ncnc2cc1OCCCN1CCOCC1,-29.9 ± 15
17,CCC1=C(C)CN(C(=O)NCCc2ccc(S(=O)(=O)NC(=O)N[C@H]3CC[C@H](C)CC3)cc2)C1=O [Glimepiride],-6.79 ± 4.3
18,CCCn1c(=O)[nH]c2nc(-c3ccc(S(=O)(=O)O)cc3)[nH]c2c1=O,-4.04 ± 2.8
19,O=C1CCc2cc(OCCCCc3nnnn3C3CCCCC3)ccc2N1 [Cilostazol],-12.1 ± 11
20,CN(C)C(=O)n1nnnc1Cc1ccc(-c2ccccc2)cc1,-29.5 ± 15

# Shown with bars between the fields: part of the list above.
row | Compound | robust z score of cell number
13 | NC(=O)N1C(=O)/C(=C(\O)c2cccs2)c2cc(Cl)ccc21 [Tenidap] | -19.8 ± 8.7
19 | O=C1CCc2cc(OCCCCc3nnnn3C3CCCCC3)ccc2N1 [Cilostazol] | -12.1 ± 11

# More structures:

row,Compound,robust z score of cell number
1,C=C1C(=O)O[C@H]2[C@H]1CC/C(C)=C/CC[C@@]1(C)O[C@@H]21 [Parthenolide],-20.1 ± 14
2,COc1ccccc1N1CCN(CCCCNC(=O)c2ccc(-c3ccc(C(C)=O)cc3)cc2)CC1,-19.9 ± 14
3,CCN(CC)CCCCNc1ncc2cc(-c3c(Cl)cccc3Cl)c(NC(=O)NC(C)(C)C)nc2n1,-62.1 ± 53
4,COc1ccc(/C=C/C(=O)Nc2ccccc2C(=O)O)cc1OC [Tranilast],-27.9 ± 22
5,Cc1nc2sccn2c(=O)c1CCN1CCC(=C(c2ccccc2)c2ccc(F)cc2)CC1,-41.2 ± 27
6,CCN(CC)CCCC(C)Nc1nc(C)cc(Nc2ccc3nc(C)cc(N)c3c2)n1 (centres undefined),-0.795 ± 1.4
7,CC1CCN(CCCC(=O)c2ccc(F)cc2)CC1 [Melperone hydrochloride],-6.01 ± 3.4
8,Fc1ccc(Cl)cc1-c1nc(Nc2ccncc2)c2nccnc2n1,-9.89 ± 11
9,OC(c1ccccc1)C1CCN(CCc2ccccc2)CC1 (centres undefined),-8.54 ± 3.3
10,"O=C1CN(/N=C/c2ccc(-c3ccc([N+](=O)[O-])cc3)o2)C(=O)N1 [Dantrolene, sodium salt]",-15.7 ± 15
11,CNC(=O)[C@H]1O[C@@H](n2cnc3c(NCc4cccc(I)c4)ncnc32)[C@H](O)[C@@H]1O,-11.8 ± 6.4
12,N#C/C(=C\c1ccc(O)c(O)c1)C(=O)NCCCCc1ccccc1,-57.4 ± 57
13,O=C(c1ccc(F)cc1)C1CCN(CCn2c(=S)[nH]c3ccccc3c2=O)CC1 [Altanserin hydrochloride],-10 ± 2.8
14,CC(C)NC[C@H](O)COc1ccc(CC(N)=O)cc1 [S-(-)-Atenolol],-1.55 ± 4.4
15,CC[C@]1(O)C[C@@H]2CN(CCc3c([nH]c4ccccc34)[C@@](C(=O)OC)(c3cc4c(cc3OC)N(C)[C@H]3[C@@](O)(C(=O)OC)[C@H](OC(C)=O)[C@]5(CC)C=CCN6CC[C@]43[C@@H]65)C2)C1 [Vinblastine sulfate],-23.3 ± 16
16,CCC(NC(C)C)C(O)c1ccc(O)c2[nH]c(=O)ccc12 (centres undefined) [Procaterol hydrochloride],-9.22 ± 1.6
17,O=C(NCCCCN1CCN(c2cccc(Cl)c2Cl)CC1)c1ccc2c(c1)Cc1ccccc1-2,-14.6 ± 6
18,O=C(NCCCCCCNC(=O)ON=C1CCCCC1)ON=C1CCCCC1,-2.28 ± 1.5
19,O=c1ncccn1[C@@H]1O[C@H](CO)[C@@H](O)[C@H]1O [Zebularine],-11.2 ± 5.2
